Laboratory results as given in patent US8987285B2, “Pharmaceutical compositions, dosage forms and new forms of the compound of formula (I), and methods of use thereof” (Portola Pharmaceuticals, Inc., priority 2010, dated 2015).
Some results were stated once for a whole list of compounds, not compound by compound.

Test: Loss of hydrate water of hydrate Forms A and B on heating
Type: physicochemical

SMILES: CNc1cc2[nH]c(=O)n(-c3ccc(NC(=O)[N-]S(=O)(=O)c4ccc(Cl)s4)cc3)c(=O)c2cc1F.[K+] [Form A]
- temperature at which hydrate water is lost: lower than 80 °C
